In PubChem BioAssay AID248 (DTP/NCI, 2004):
The list is a part of this screen's results and no random one: it covers a few groups of compounds. Not every dose and run of a compound is shown. T/C: endpoint of the treated group in % of that of the vehicle group. Where survival is the endpoint, this PubChem deposit counts one and a half times the control or more as active, and values a quarter to a half above the control carry no call in these data; other NCI protocols may use other cut-offs. Schedules are NCI's codes, read here as Q, the interval in days (D) or hours (H), X, the number of doses. Signs of the kind (2×) say how often a value occurs here. Some doses were run more than once; the results are listed from low to high. Some schedule codes hold Z or #, which are not explained here. Some T/C values carry the count of animals alive at the toxicity check (mostly the fifth day); without a count or a note in brackets, all were alive then.

Test system: L1210 leukemia ip in BDF1 mice, survival T/C
Assay: NCI In Vivo Anticancer Drug Screen. Data for tumor model L1210 Leukemia (intraperitoneal) in B6D2F1 (BDF1) mice
Conditions: T/C endpoint: mean survival time, higher T/C = longer survival

With `OC(CNCCCl)C(O)C(O)C(O)CNCCCl` (stereo not drawn) the T/C (dose: 0.25 mg/kg/injection, schedule: Q01DX Z (ip), vehicle: saline) was 104 % of control, the T/C (dose: 0.3 mg/kg/injection, schedule: Q01DX009 (ip), vehicle: saline) was 105 % of control and the T/C (dose: 0.5 mg/kg/injection, schedule: Q01DX Z (ip), vehicle: saline) was 106 % of control. For the same molecule, the T/C (dose: 0.6 mg/kg/injection, schedule: Q01DX001 (sc), vehicle: saline) was 105 % of control, the T/C (dose: 0.6 mg/kg/injection, schedule: Q01DX009 (ip), vehicle: saline) was 100 % of control and the T/C (dose: 1.0 mg/kg/injection, schedule: Q01DX Z (ip), vehicle: saline) was 108 % of control. For the same molecule, the T/C (dose: 1.25 mg/kg/injection, schedule: Q01DX001 (sc), vehicle: saline) was 101 % of control, the T/C (dose: 1.25 mg/kg/injection, schedule: Q01DX005 (ip), vehicle: saline) was 106 % of control and the T/C (dose: 1.25 mg/kg/injection, schedule: Q01DX009 (ip), vehicle: saline) was 108 % of control (2×). The T/C (dose: 1.25 mg/kg/injection, schedule: Q01DX009 (oral), vehicle: saline) was 106 % of control, the T/C (dose: 1.4 mg/kg/injection, schedule: Q01DX006 (iv), vehicle: saline) was 103 % of control and the T/C (dose: 1.4 mg/kg/injection, schedule: Q01DX Z (ip), vehicle: saline) was 123 % of control. The T/C (dose: 2.0 mg/kg/injection, schedule: Q01DX Z (ip), vehicle: saline) was 128 and 134 % of control, the T/C (dose: 2.11 mg/kg/injection, schedule: Q01DX Z (ip), vehicle: carboxymethylcellulose (CMC)) was 114 % of control and the T/C (dose: 2.2 mg/kg/injection, schedule: Q01DX006 (iv), vehicle: saline) was 109 % of control. The T/C (dose: 2.2 mg/kg/injection, schedule: Q01DX Z (ip), vehicle: saline) was 129 % of control, the T/C (dose: 2.5 mg/kg/injection, schedule: Q01DX001 (oral), vehicle: saline) was 101 % of control and the T/C (dose: 2.5 mg/kg/injection, schedule: Q01DX001 (sc), vehicle: saline) was 108 % of control. The T/C (dose: 2.5 mg/kg/injection, schedule: Q01DX005 (ip), vehicle: saline) was 120 % of control, the T/C (dose: 2.5 mg/kg/injection, schedule: Q01DX009 (ip), vehicle: saline) was 120 and 125 % of control and the T/C (dose: 2.5 mg/kg/injection, schedule: Q01DX009 (oral), vehicle: saline) was 102 % of control. The T/C (dose: 2.5 mg/kg/injection, schedule: Q#A X Z (ip), vehicle: saline) was 113 % of control, the T/C (dose: 3.3 mg/kg/injection, schedule: Q01DX006 (iv), vehicle: saline) was 108 % of control and the T/C (dose: 3.3 mg/kg/injection, schedule: Q01DX Z (ip), vehicle: saline) was 137 % of control. The T/C (dose: 3.75 mg/kg/injection, schedule: Q01DX009 (ip), vehicle: saline) was 118 % of control, the T/C (dose: 4.0 mg/kg/injection, schedule: Q01DX Z (ip), vehicle: saline) was 123 % of control and the T/C (dose: 4.22 mg/kg/injection, schedule: Q01DX Z (ip), vehicle: carboxymethylcellulose (CMC)) was 112 % of control. For the same molecule, the T/C (dose: 4.4 mg/kg/injection, schedule: Q03DX Z (ip), vehicle: saline) was 116 % of control, the T/C (dose: 4.4 mg/kg/injection, schedule: Q07DX Z (ip), vehicle: saline) was 114 % of control and the T/C (dose: 5.0 mg/kg/injection, schedule: Q01DX001 (ip), vehicle: saline) was 108, 112, 127 % of control. For the same molecule, the T/C (dose: 5.0 mg/kg/injection, schedule: Q01DX001 (oral), vehicle: saline) was 97 % of control, the T/C (dose: 5.0 mg/kg/injection, schedule: Q01DX001 (sc), vehicle: saline) was 117 % of control and the T/C (dose: 5.0 mg/kg/injection, schedule: Q01DX005 (ip), vehicle: saline) was 128 % of control. The T/C (dose: 5.0 mg/kg/injection, schedule: Q01DX006 (iv), vehicle: saline) was 108 and 125 % of control, the T/C (dose: 5.0 mg/kg/injection, schedule: Q01DX009 (ip), vehicle: saline) was 129 and 130 % of control and the T/C (dose: 5.0 mg/kg/injection, schedule: Q01DX009 (oral), vehicle: saline) was 102 % of control. The T/C (dose: 5.0 mg/kg/injection, schedule: Q01DX009 (sc), vehicle: saline) was 98 % of control, the T/C (dose: 5.0 mg/kg/injection, schedule: Q01DX Z (im), vehicle: saline) was 105 % of control and the T/C (dose: 5.0 mg/kg/injection, schedule: Q01DX Z (ip), vehicle: saline) was 134 [5 of 6 alive] and 152 % of control. For the same molecule, the T/C (dose: 5.0 mg/kg/injection, schedule: Q01DX Z (oral), vehicle: saline) was 101 % of control, the T/C (dose: 5.0 mg/kg/injection, schedule: Q01DX Z (sc), vehicle: saline) was 102 % of control and the T/C (dose: 5.0 mg/kg/injection, schedule: Q## X002 (ip), vehicle: saline) was 117 % of control. The T/C (dose: 5.0 mg/kg/injection, schedule: Q## X003 (ip), vehicle: saline) was 113 % of control, the T/C (dose: 5.0 mg/kg/injection, schedule: Q## X008 (ip), vehicle: saline) was 109 % of control and the T/C (dose: 5.0 mg/kg/injection, schedule: Q## X016 (ip), vehicle: saline) was 103 % of control. For the same molecule, the T/C (dose: 5.0 mg/kg/injection, schedule: Q## X024 (ip), vehicle: saline) was 111 % of control, the T/C (dose: 5.0 mg/kg/injection, schedule: Q#A X Z (ip), vehicle: saline) was 121 % of control and the T/C (dose: 6.6 mg/kg/injection, schedule: Q03DX Z (ip), vehicle: saline) was 134 % of control. The T/C (dose: 6.6 mg/kg/injection, schedule: Q07DX Z (ip), vehicle: saline) was 112 % of control, the T/C (dose: 7.5 mg/kg/injection, schedule: Q01DX009 (ip), vehicle: saline) was 139 % of control and the T/C (dose: 7.5 mg/kg/injection, schedule: Q01DX015 (ip), vehicle: saline) was 141 % of control. For the same molecule, the T/C (dose: 8.0 mg/kg/injection, schedule: Q01DX Z (ip), vehicle: saline) was 135 and 139 % of control, the T/C (dose: 8.45 mg/kg/injection, schedule: Q01DX Z (ip), vehicle: carboxymethylcellulose (CMC)) was 131 % of control and the T/C (dose: 10.0 mg/kg/injection, schedule: Q01DX001 (ip), vehicle: saline, evaluated on day 30) was 120, 129, 130 % of control. For the same molecule, the T/C (dose: 10.0 mg/kg/injection, schedule: Q01DX001 (ip), vehicle: saline, run until all animals had died) was 123 % of control, the T/C (dose: 10.0 mg/kg/injection, schedule: Q01DX001 (oral), vehicle: saline) was 103 % of control and the T/C (dose: 10.0 mg/kg/injection, schedule: Q01DX002 (ip), vehicle: saline) was 117 and 118 % of control. For the same molecule, the T/C (dose: 10.0 mg/kg/injection, schedule: Q01DX005 (ip), vehicle: saline) was 143 % of control, the T/C (dose: 10.0 mg/kg/injection, schedule: Q01DX006 (iv), vehicle: saline) was 110 % of control and the T/C (dose: 10.0 mg/kg/injection, schedule: Q01DX009 (ip), vehicle: saline) was 145 and 164 % of control. For the same molecule, the T/C (dose: 10.0 mg/kg/injection, schedule: Q01DX009 (oral), vehicle: saline) was 107 % of control, the T/C (dose: 10.0 mg/kg/injection, schedule: Q01DX009 (sc), vehicle: saline) was 106 % of control and the T/C (dose: 10.0 mg/kg/injection, schedule: Q01DX Z (im), vehicle: saline) was 112 % of control. The T/C (dose: 10.0 mg/kg/injection, schedule: Q01DX Z (ip), vehicle: saline) was 133 % of control, the T/C (dose: 10.0 mg/kg/injection, schedule: Q01DX Z (oral), vehicle: saline) was 97 % of control and the T/C (dose: 10.0 mg/kg/injection, schedule: Q01DX Z (sc), vehicle: saline) was 116 % of control. The T/C (dose: 10.0 mg/kg/injection, schedule: Q03DX Z (ip), vehicle: saline) was 153 % of control, the T/C (dose: 10.0 mg/kg/injection, schedule: Q07DX Z (ip), vehicle: saline) was 112 and 129 % of control and the T/C (dose: 10.0 mg/kg/injection, schedule: Q## X002 (ip), vehicle: saline) was 122 % of control. The T/C (dose: 10.0 mg/kg/injection, schedule: Q## X003 (ip), vehicle: saline) was 122 % of control, the T/C (dose: 10.0 mg/kg/injection, schedule: Q## X008 (ip), vehicle: saline) was 116 % of control and the T/C (dose: 10.0 mg/kg/injection, schedule: Q## X016 (ip), vehicle: saline) was 103 % of control. The T/C (dose: 10.0 mg/kg/injection, schedule: Q## X024 (ip), vehicle: saline) was 114 % of control, the T/C (dose: 10.0 mg/kg/injection, schedule: Q#A X Z (ip), vehicle: saline) was 89 % of control and the T/C (dose: 11.0 mg/kg/injection, schedule: Q01DX015 (ip), vehicle: saline) was 149 % of control. For the same molecule, the T/C (dose: 12.5 mg/kg/injection, schedule: Q01DX Z (ip), vehicle: saline) was 102 % of control, the T/C (dose: 15.0 mg/kg/injection, schedule: Q01DX001 (ip), vehicle: saline) was 134 % of control and the T/C (dose: 15.0 mg/kg/injection, schedule: Q01DX002 (ip), vehicle: saline) was 115 and 122 % of control. The T/C (dose: 15.0 mg/kg/injection, schedule: Q01DX009 (ip), vehicle: saline) was 149 % of control, the T/C (dose: 15.0 mg/kg/injection, schedule: Q03DX Z (ip), vehicle: saline) was 134 and 159 % of control and the T/C (dose: 15.0 mg/kg/injection, schedule: Q07DX Z (ip), vehicle: saline) was 150 % of control. For the same molecule, the T/C (dose: 16.0 mg/kg/injection, schedule: Q01DX Z (ip), vehicle: saline) was 172 % of control, the T/C (dose: 16.9 mg/kg/injection, schedule: Q01DX Z (ip), vehicle: carboxymethylcellulose (CMC)) was 127 % of control and the T/C (dose: 17.0 mg/kg/injection, schedule: Q01DX015 (ip), vehicle: saline) was 155 % of control. For the same molecule, the T/C (dose: 17.0 mg/kg/injection, schedule: Q01DX Z (ip), vehicle: carboxymethylcellulose (CMC)) was 143 % of control, the T/C (dose: 20.0 mg/kg/injection, schedule: Q01DX001 (ip), vehicle: saline) was 109, 128, 132 % of control and the T/C (dose: 20.0 mg/kg/injection, schedule: Q01DX001 (oral), vehicle: saline) was 97 % of control. The T/C (dose: 20.0 mg/kg/injection, schedule: Q01DX005 (ip), vehicle: saline) was 172 % of control, the T/C (dose: 20.0 mg/kg/injection, schedule: Q01DX006 (iv), vehicle: saline) was 122 % of control and the T/C (dose: 20.0 mg/kg/injection, schedule: Q01DX009 (ip), vehicle: saline) was 156 and 165 % of control. The T/C (dose: 20.0 mg/kg/injection, schedule: Q01DX009 (oral), vehicle: saline) was 112 % of control [5 of 6 alive], the T/C (dose: 20.0 mg/kg/injection, schedule: Q01DX009 (sc), vehicle: saline) was 118 % of control and the T/C (dose: 20.0 mg/kg/injection, schedule: Q01DX Z (im), vehicle: saline) was 129 % of control. The T/C (dose: 20.0 mg/kg/injection, schedule: Q01DX Z (ip), vehicle: saline) was 100 % of control, the T/C (dose: 20.0 mg/kg/injection, schedule: Q01DX Z (oral), vehicle: saline) was 103 and 118 % of control and the T/C (dose: 20.0 mg/kg/injection, schedule: Q01DX Z (sc), vehicle: saline) was 144 % of control. The T/C (dose: 20.0 mg/kg/injection, schedule: Q## X002 (ip), vehicle: saline) was 135 % of control, the T/C (dose: 20.0 mg/kg/injection, schedule: Q## X003 (ip), vehicle: saline) was 134 % of control and the T/C (dose: 20.0 mg/kg/injection, schedule: Q## X008 (ip), vehicle: saline) was 123 % of control. For the same molecule, the T/C (dose: 20.0 mg/kg/injection, schedule: Q## X016 (ip), vehicle: saline) was 104 % of control, the T/C (dose: 20.0 mg/kg/injection, schedule: Q## X024 (ip), vehicle: saline) was 124 % of control and the T/C (dose: 20.0 mg/kg/injection, schedule: Q#A X Z (ip), vehicle: saline) was 113 and 118 % of control. For the same molecule, the T/C (dose: 23.0 mg/kg/injection, schedule: Q01DX001 (ip), vehicle: saline) was 141 % of control.
